Results are given in words; binding and its absence hold for the method and conditions named. Binding seen in cells or lysates may run through a third protein. These calls come from enrichment with a bait or labelling near it, and not all partners need be listed.

Protein sequences, listed by entry. Tags and fused reporters are not part of them.
UniProt Q9QZL0: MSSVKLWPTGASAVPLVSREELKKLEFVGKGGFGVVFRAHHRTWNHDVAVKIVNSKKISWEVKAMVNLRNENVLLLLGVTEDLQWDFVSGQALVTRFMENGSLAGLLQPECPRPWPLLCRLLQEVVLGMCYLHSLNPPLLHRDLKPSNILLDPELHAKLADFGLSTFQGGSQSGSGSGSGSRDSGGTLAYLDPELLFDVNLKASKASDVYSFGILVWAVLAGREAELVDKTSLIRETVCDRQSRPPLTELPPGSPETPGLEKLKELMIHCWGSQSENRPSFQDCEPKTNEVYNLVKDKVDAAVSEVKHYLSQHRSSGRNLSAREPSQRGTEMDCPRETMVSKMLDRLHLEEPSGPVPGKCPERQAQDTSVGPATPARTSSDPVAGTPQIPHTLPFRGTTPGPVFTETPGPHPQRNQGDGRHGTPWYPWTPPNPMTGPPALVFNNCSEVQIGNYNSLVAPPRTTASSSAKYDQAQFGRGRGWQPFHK

The experiment has as its target RIP3 (bait of the immunoprecipitation analysed by mass spectrometry) (UniProt Q9QZL0). The experiment can be described thus: affinity purification with mass spectrometry; immunoprecipitates of RIP3 analysed by mass spectrometry; cells and antibody not stated.

B1: RGS19 (found by mass spectrometry in the immunoprecipitates of RIP3) (protein, UniProt Q9CX84 1-216)
chain: MPTPHEAEKQHTGPEEADRPPSMSSHDAAPSGPPSRNPCCLCWCCCCSCSWNQERQRAWQVSRESKLQPLPSCEVCTPPSPKEVQSWAQSFDKLMHSPTGRSVFRAFLRTEYSEENMLFWLACEELKAEANQHVVDEKARLIYEDYVSILSPKEVSLDSRVREGINRKMQEPSPHTFDDAQLQIYTLMHRDSYPRFLTSPTYRSLLLQGAPQSSEA
On to B1, for which the binding entry is “binds”.
